Measured values as given in patent publication US7919584B1, “Methods and compositions for diagnosis and treatment of asthma” (Arbor Vita Corporation, priority 2005, dated 2011).
These are yes or no findings as the source states them, for the method shown. Some entries that bind do so weakly or less than the wild type. For part of these data: Sequences can lack the tags named with a protein.

The chains behind the UniProt entries cited, without tags or fusion partners. Residues count along the entry.
UniProt Q8TCU6, residues 612-713: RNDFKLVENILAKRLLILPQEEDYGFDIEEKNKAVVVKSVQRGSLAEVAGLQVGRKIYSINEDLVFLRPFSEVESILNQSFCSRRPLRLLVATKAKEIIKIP

Columns and labels:
Assay in all cases: modified G assay: GST-PDZ captured on anti-GST plate, biotinylated peptide pre-mixed with HRP-streptavidin; listed if OD450 at least 0.5 and signal to noise at least 1.5
[1] = target: T1, GST-NeDLG (PDZ #3) fusion protein (human) (UniProt Q92796)
T1 sequence (looked up): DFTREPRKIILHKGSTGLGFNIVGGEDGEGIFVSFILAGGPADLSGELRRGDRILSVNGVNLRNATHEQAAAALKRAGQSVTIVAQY

[2] = target: GST-KIAA1415 PDZ domain fusion protein (human) (UniProt Q8TCU6)
[3] = target: GST-GORASP1 (PDZ #1) fusion protein (human) [GST: P08515]
[4] = target: T2, GST-MUPP1 (PDZ #10) fusion protein (human) (UniProt O75970)
T2 sequence (looked up): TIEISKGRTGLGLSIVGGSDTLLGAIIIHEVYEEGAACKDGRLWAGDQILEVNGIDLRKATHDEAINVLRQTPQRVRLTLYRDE

[5] = target: GST-KIAA0313 PDZ domain fusion protein (human) [GST: P08515]
[6] = target: GST-KIAA1284 PDZ domain fusion protein (human) [GST: P08515]

Measured: binding

YGRKKRRQRRRIGELQLSIA (biotin at the amino-terminus)
binds: all assays above
